Source: US20130143320A1
No constants are given. Whether binding was seen depends on the method and setting. For some of these results: Binding seen in cells or lysates may run through a third protein. Some results given as binding are weak or reduced against the parent protein; the word gives no strength. Where a sequence is shown, tags or fusion partners need not be part of it.

Legend:
[1] = molecular target: T1, full length hemagglutinin-tagged mouse Robo-4 receptor (Robo-4-HA) (mouse) (UniProt Q8C310); assay: indirect immunofluorescence of Slit-myc CM on Robo-4-HEK cells (murine anti-myc antibody, then Alexa 594 anti-mouse antibody)
T1 sequence: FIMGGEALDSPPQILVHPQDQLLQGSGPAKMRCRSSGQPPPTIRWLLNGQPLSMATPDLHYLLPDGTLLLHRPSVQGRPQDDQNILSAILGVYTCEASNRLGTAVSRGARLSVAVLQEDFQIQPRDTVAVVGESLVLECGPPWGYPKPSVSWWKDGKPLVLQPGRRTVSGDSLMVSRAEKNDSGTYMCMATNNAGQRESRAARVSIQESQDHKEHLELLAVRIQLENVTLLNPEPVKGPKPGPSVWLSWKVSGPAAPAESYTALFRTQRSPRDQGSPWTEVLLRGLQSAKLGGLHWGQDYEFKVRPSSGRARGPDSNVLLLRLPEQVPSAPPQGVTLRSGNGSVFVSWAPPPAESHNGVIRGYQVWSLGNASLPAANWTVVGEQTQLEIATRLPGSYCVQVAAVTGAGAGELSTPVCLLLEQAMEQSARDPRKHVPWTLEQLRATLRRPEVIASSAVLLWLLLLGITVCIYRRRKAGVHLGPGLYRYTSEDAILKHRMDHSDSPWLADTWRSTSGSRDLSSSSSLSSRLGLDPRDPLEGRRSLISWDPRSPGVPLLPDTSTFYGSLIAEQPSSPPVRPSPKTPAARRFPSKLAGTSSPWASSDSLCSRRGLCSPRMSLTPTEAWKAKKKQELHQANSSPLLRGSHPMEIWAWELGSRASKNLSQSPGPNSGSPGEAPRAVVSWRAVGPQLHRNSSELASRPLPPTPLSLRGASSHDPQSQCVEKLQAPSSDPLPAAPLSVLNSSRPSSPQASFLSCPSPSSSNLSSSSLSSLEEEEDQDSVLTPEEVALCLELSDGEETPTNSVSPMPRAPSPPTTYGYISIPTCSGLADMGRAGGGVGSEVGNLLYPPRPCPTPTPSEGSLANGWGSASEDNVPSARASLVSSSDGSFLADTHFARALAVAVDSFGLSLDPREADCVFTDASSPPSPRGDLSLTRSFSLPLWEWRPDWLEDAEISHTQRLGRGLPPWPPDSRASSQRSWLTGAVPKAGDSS

[2] = molecular target: T1, full length hemagglutinin-tagged mouse Robo-4 receptor (Robo-4-HA) (mouse); assay: co-immunoprecipitation with anti-HA antibodies, immunoblot
[3] = molecular target: T1, full length hemagglutinin-tagged mouse Robo-4 receptor (Robo-4-HA) (mouse); assay: co-immunoprecipitation with anti-HA antibodies, immunoblot (FIG. 5 legend)
[4] = molecular target: T1, full length hemagglutinin-tagged mouse Robo-4 receptor (Robo-4-HA) (mouse); assay: saturation of binding; method not described

Measured: binding

B1: Human Slit2 ligand tagged with the Myc Epitope (ligand, UniProt O94813 31-1529, looked up, not shown: small tags and cut ends)
chain: QCSCSGSTVDCHGLALRSVPRNIPRNTERLDLNGNNITRITKTDFAGLRHLRVLQLMENKISTIERGAFQDLKELERLRLNRNHLQLFPELLFLGTAKLYRLDLSENQIQAIPRKAFRGAVDIKNLQLDYNQISCIEDGAFRALRDLEVLTLNNNNITRLSVASFNHMPKLRTFRLHSNNLYCDCHLAWLSDWLRQRPRVGLYTQCMGPSHLRGHNVAEVQKREFVCSGHQSFMAPSCSVLHCPAACTCSNNIVDCRGKGLTEIPTNLPETITEIRLEQNTIKVIPPGAFSPYKKLRRIDLSNNQISELAPDAFQGLRSLNSLVLYGNKITELPKSLFEGLFSLQLLLLNANKINCLRVDAFQDLHNLNLLSLYDNKLQTIAKGTFSPLRAIQTMHLAQNPFICDCHLKWLADYLHTNPIETSGARCTSPRRLANKRIGQIKSKKFRCSAKEQYFIPGTEDYRSKLSGDCFADLACPEKCRCEGTTVDCSNQKLNKIPEHIPQYTAELRLNNNEFTVLEATGIFKKLPQLRKINFSNNKITDIEEGAFEGASGVNEILLTSNRLENVQHKMFKGLESLKTLMLRSNRITCVGNDSFIGLSSVRLLSLYDNQITTVAPGAFDTLHSLSTLNLLANPFNCNCYLAWLGEWLRKKRIVTGNPRCQKPYFLKEIPIQDVAIQDFTCDDGNDDNSCSPLSRCPTECTCLDTVVRCSNKGLKVLPKGIPRDVTELYLDGNQFTLVPKELSNYKHLTLIDLSNNRISTLSNQSFSNMTQLLTLILSYNRLRCIPPRTFDGLKSLRLLSLHGNDISVVPEGAFNDLSALSHLAIGANPLYCDCNMQWLSDWVKSEYKEPGIARCAGPGEMADKLLLTTPSKKFTCQGPVDVNILAKCNPCLSNPCKNDGTCNSDPVDFYRCTCPYGFKGQDCDVPIHACISNPCKHGGTCHLKEGEEDGFWCICADGFEGENCEVNVDDCEDNDCENNSTCVDGINNYTCLCPPEYTGELCEEKLDFCAQDLNPCQHDSKCILTPKGFKCDCTPGYVGEHCDIDFDDCQDNKCKNGAHCTDAVNGYTCICPEGYSGLFCEFSPPMVLPRTSPCDNFDCQNGAQCIVRINEPICQCLPGYQGEKCEKLVSVNFINKESYLQIPSAKVRPQTNITLQIATDEDSGILLYKGDKDHIAVELYRGRVRASYDTGSHPASAIYSVETINDGNFHIVELLALDQSLSLSVDGGNPKIITNLSKQSTLNFDSPLYVGGMPGKSNVASLRQAPGQNGTSFHGCIRNLYINSELQDFQKVPMQTGILPGCEPCHKKVCAHGTCQPSSQAGFTCECQEGWMGPLCDQRTNDPCLGNKCVHGTCLPINAFSYSCKCLEGHGGVLCDEEEDLFNPCQAIKCKHGKCRLSGLGQPYCECSSGYTGDSCDREISCRGERIRDYYQKQQGYAACQTTKKVSRLECRGGCAGGQCCGPLRSKRRKYSFECTDGSSFVDEVEKVVKCGCTRCVS
binds: all assays above
